# Results as given in the supplement of paper PMC8728848.
# The other results are listed elsewhere or left out.
# Legend:
# Assay in all cases: glycan array binding signal (z-score within array); higher = stronger binding
# Conditions in all cases: glycan notation: IUPAC condensed, linker removed
# Fuc(a1-2)Gal = biological target: Fuc(a1-2)Gal
# In short: (§1)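 The Consortium for Functional Glycomics database supplied 3228 glycan arrays, of which those lacking an available protein sequence were dropped. The binding signal, a within-array Z-score, was averaged across arrays of the same protein sequence and across linkers. Negative scores can be read as non-binding.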
# Fuc(a1-2)Gal(b1-3)GalNAc = biological target: Fuc(a1-2)Gal(b1-3)GalNAc
# In short: as §1
# [1] = biological target: Fuc(a1-2)Gal(b1-3)GalNAc(a1-3)[Fuc(a1-2)]Gal(b1-4)Glc
# In short: as §1
# [2] = biological target: Fuc(a1-2)Gal(b1-3)GalNAc(a1-3)[Fuc(a1-2)]Gal(b1-4)GlcNAc
# In short: as §1
# [3] = biological target: Fuc(a1-2)Gal(b1-3)GalNAc(b1-3)Gal
# In short: as §1
# [4] = biological target: Fuc(a1-2)Gal(b1-3)GalNAc(b1-3)Gal(a1-4)Gal(b1-4)Glc
# In short: as §1
# [5] = biological target: Fuc(a1-2)Gal(b1-3)GalNAc(b1-4)[Neu5Ac(a2-3)]Gal(b1-4)Glc
# In short: as §1
# Fuc(a1-2)Gal(b1-3)GlcNAc = biological target: Fuc(a1-2)Gal(b1-3)GlcNAc
# In short: as §1
# [6] = biological target: Fuc(a1-2)Gal(b1-3)GlcNAc(b1-2)Man(a1-3)[Fuc(a1-2)Gal(b1-3)GlcNAc(b1-2)Man(a1-6)]Man(b1-4)GlcNAc(b1-4)GlcNAc
# In short: as §1
# [7] = biological target: Fuc(a1-2)Gal(b1-3)GlcNAc(b1-2)Man(a1-3)[Fuc(a1-2)Gal(b1-3)GlcNAc(b1-2)Man(a1-6)]Man(b1-4)GlcNAc(b1-4)[Fuc(a1-6)]GlcNAc
# In short: as §1
# [8] = biological target: Fuc(a1-2)Gal(b1-3)GlcNAc(b1-3)Gal(b1-4)Glc
# In short: as §1
# [9] = biological target: Fuc(a1-2)Gal(b1-3)GlcNAc(b1-3)GalNAc
# In short: as §1
# [10] = biological target: Fuc(a1-2)Gal(b1-3)GlcNAc(b1-3)[Fuc(a1-2)Gal(b1-3)GlcNAc(b1-6)]GalNAc
# In short: as §1
# [11] = biological target: Fuc(a1-2)Gal(b1-3)GlcNAc(b1-3)[Gal(b1-4)GlcNAc(b1-6)]Gal(b1-4)Glc
# In short: as §1
# [12] = biological target: Fuc(a1-2)Gal(b1-3)GlcNAc(b1-3)[Neu5Ac(a2-6)Gal(b1-4)GlcNAc(b1-6)]Gal(b1-4)Glc
# In short: as §1
# [13] = biological target: Fuc(a1-2)Gal(b1-3)GlcNAc6S
# In short: as §1
# [14] = biological target: Fuc(a1-2)Gal(b1-3)[Fuc(a1-4)]GlcNAc
# In short: as §1
# [15] = biological target: Fuc(a1-2)Gal(b1-3)[Fuc(a1-4)]GlcNAc(b1-2)Man(a1-3)[Fuc(a1-2)Gal(b1-3)[Fuc(a1-4)]GlcNAc(b1-2)Man(a1-3)]Man(b1-4)GlcNAc(b1-4)GlcNAc
# In short: as §1
# [16] = biological target: Fuc(a1-2)Gal(b1-3)[Fuc(a1-4)]GlcNAc(b1-2)Man(a1-3)[Fuc(a1-2)Gal(b1-3)[Fuc(a1-4)]GlcNAc(b1-2)Man(a1-6)]Man(b1-4)GlcNAc(b1-4)[Fuc(a1-6)]GlcNAc(b1-4)[Fuc(a1-6)]GlcNAc
# In short: as §1
# [17] = biological target: Fuc(a1-2)Gal(b1-3)[Fuc(a1-4)]GlcNAc(b1-3)[Fuc(a1-3)[Gal(b1-4)]GlcNAc(b1-6)]Gal(b1-4)Glc
# In short: as §1
# [18] = biological target: Fuc(a1-2)Gal(b1-3)[Fuc(a1-4)]GlcNAc(b1-3)[Gal(b1-4)GlcNAc(b1-6)]Gal(b1-4)Glc
# In short: as §1
# Fuc(a1-2)Gal(b1-4)Glc = biological target: Fuc(a1-2)Gal(b1-4)Glc
# In short: as §1
# Fuc(a1-2)Gal(b1-4)Glc6S = biological target: Fuc(a1-2)Gal(b1-4)Glc6S
# In short: as §1
# Fuc(a1-2)Gal(b1-4)GlcNAc = biological target: Fuc(a1-2)Gal(b1-4)GlcNAc
# In short: as §1
# [19] = biological target: Fuc(a1-2)Gal(b1-4)GlcNAc(b1-2)Man
# In short: as §1
# [20] = biological target: Fuc(a1-2)Gal(b1-4)GlcNAc(b1-2)Man(a1-3)[Fuc(a1-2)Gal(b1-4)GlcNAc(b1-2)Man(a1-6)]Man(b1-4)GlcNAc(b1-4)GlcNAc
# In short: as §1
# [21] = biological target: Fuc(a1-2)Gal(b1-4)GlcNAc(b1-2)Man(a1-3)[Fuc(a1-2)Gal(b1-4)GlcNAc(b1-2)Man(a1-6)]Man(b1-4)GlcNAc(b1-4)[Fuc(a1-6)]GlcNAc
# In short: as §1
# [22] = biological target: Fuc(a1-2)Gal(b1-4)GlcNAc(b1-2)[Fuc(a1-2)Gal(b1-4)GlcNAc(b1-4)]Man(a1-3)[Fuc(a1-2)Gal(b1-4)GlcNAc(b1-2)Man(a1-6)]Man(b1-4)GlcNAc(b1-4)GlcNAc
# In short: as §1
# [23] = biological target: Fuc(a1-2)Gal(b1-4)GlcNAc(b1-3)Gal(b1-4)GlcNAc
# In short: as §1
# [24] = biological target: Fuc(a1-2)Gal(b1-4)GlcNAc(b1-3)Gal(b1-4)GlcNAc(b1-2)Man(a1-3)[Fuc(a1-2)Gal(b1-4)GlcNAc(b1-3)Gal(b1-4)GlcNAc(b1-2)Man(a1-6)]Man(b1-4)GlcNAc(b1-4)GlcNAc
# In short: as §1
# [25] = biological target: Fuc(a1-2)Gal(b1-4)GlcNAc(b1-3)Gal(b1-4)GlcNAc(b1-3)Gal(b1-4)GlcNAc
# In short: as §1
# [26] = biological target: Fuc(a1-2)Gal(b1-4)GlcNAc(b1-3)GalNAc
# In short: as §1
# [27] = biological target: Fuc(a1-2)Gal(b1-4)GlcNAc(b1-3)[Fuc(a1-2)Gal(b1-4)GlcNAc(b1-6)]GalNAc
# In short: as §1
# [28] = biological target: Fuc(a1-2)Gal(b1-4)GlcNAc(b1-3)[Fuc(a1-3)[Gal(b1-4)]GlcNAc(b1-6)]Gal(b1-4)Glc
# In short: as §1
# [29] = biological target: Fuc(a1-2)Gal(b1-4)GlcNAc(b1-6)GalNAc
# In short: as §1
# [30] = biological target: Fuc(a1-2)Gal(b1-4)GlcNAc6S
# In short: as §1
# [31] = biological target: Fuc(a1-2)Gal(b1-4)[Fuc(a1-3)]GlcNAc
# In short: as §1
# [32] = biological target: Fuc(a1-2)Gal(b1-4)[Fuc(a1-3)]GlcNAc(b1-2)Man(a1-3)[Fuc(a1-2)Gal(b1-4)[Fuc(a1-3)]GlcNAc(b1-2)Man(a1-6)]Man(b1-4)GlcNAc(b1-4)[Fuc(a1-6)]GlcNAc
# In short: as §1
# [33] = biological target: Fuc(a1-2)Gal(b1-4)[Fuc(a1-3)]GlcNAc(b1-2)[Fuc(a1-2)Gal(b1-4)[Fuc(a1-3)]GlcNAc(b1-4)]Man(a1-3)[Fuc(a1-2)Gal(b1-4)[Fuc(a1-3)]GlcNAc(b1-2)Man(a1-6)]Man(b1-4)GlcNAc(b1-4)GlcNAc
# In short: as §1
# [34] = biological target: Fuc(a1-2)Gal(b1-4)[Fuc(a1-3)]GlcNAc(b1-3)Gal(b1-4)[Fuc(a1-3)]GlcNAc
# In short: as §1
# [35] = biological target: Fuc(a1-2)Gal(b1-4)[Fuc(a1-3)]GlcNAc(b1-3)Gal(b1-4)[Fuc(a1-3)]GlcNAc(b1-3)Gal(b1-4)[Fuc(a1-3)]GlcNAc
# In short: as §1
# [36] = biological target: Fuc(a1-2)Gal(b1-4)[Fuc(a1-3)]GlcNAc(b1-3)GalNAc
# In short: as §1
# [37] = biological target: Fuc(a1-2)Gal(b1-4)[Fuc(a1-3)]GlcNAc(b1-3)[Neu5Ac(a2-6)Gal(b1-4)GlcNAc(b1-6)]Gal(b1-4)Glc
# In short: as §1
# [38] = biological target: Fuc(a1-2)Gal3S(b1-4)GlcNAc
# In short: as §1
# [39] = biological target: Fuc(a1-2)Gal6S(b1-3)GlcNAc
# In short: as §1
binder,measurement,setting,value
Pbx2CASH domain (Cryptococcus neoformans) (protein) GIPGPNRLYRLSGPIIFTAADQEIATYGYPTGSERAVLRVEGRNTATAIQGDCRRCARVSVKNLVVDGNRKKLGRMRDFQLATGLVVLGGNEGQSIQNSWIKNPRGFTAIHIREGDKLQCSGARVEKNEIGPVGEEYDPEKDGDDPEMSPLGRPLADGVSIACRDSFIRDNTFRDNTDAAIVVYCSPGTLIHA,glycan array binding signal (z-score),Fuc(a1-2)Gal,-0.39
same,glycan array binding signal (z-score),Fuc(a1-2)Gal(b1-3)GalNAc,-0.701
same,glycan array binding signal (z-score),[1],-0.168
same,glycan array binding signal (z-score),[2],0.239
same,glycan array binding signal (z-score),[3],-0.599
same,glycan array binding signal (z-score),[4],-0.687
same,glycan array binding signal (z-score),[5],-0.327
same,glycan array binding signal (z-score),Fuc(a1-2)Gal(b1-3)GlcNAc,-0.432
same,glycan array binding signal (z-score),[6],0.289
same,glycan array binding signal (z-score),[7],-0.372
same,glycan array binding signal (z-score),[8],-0.355
same,glycan array binding signal (z-score),[9],0.638
same,glycan array binding signal (z-score),[10],0.475
same,glycan array binding signal (z-score),[11],-0.52
same,glycan array binding signal (z-score),[12],-0.145
same,glycan array binding signal (z-score),[13],0.599
same,glycan array binding signal (z-score),[14],-0.752
same,glycan array binding signal (z-score),[15],0.448
same,glycan array binding signal (z-score),[16],0.191
same,glycan array binding signal (z-score),[17],-0.439
same,glycan array binding signal (z-score),[18],-0.27
same,glycan array binding signal (z-score),Fuc(a1-2)Gal(b1-4)Glc,-0.35
same,glycan array binding signal (z-score),Fuc(a1-2)Gal(b1-4)Glc6S,-0.514
same,glycan array binding signal (z-score),Fuc(a1-2)Gal(b1-4)GlcNAc,-0.76
same,glycan array binding signal (z-score),[19],-0.067
same,glycan array binding signal (z-score),[20],0.431
same,glycan array binding signal (z-score),[21],0.625
same,glycan array binding signal (z-score),[22],0.106
same,glycan array binding signal (z-score),[23],-0.675
same,glycan array binding signal (z-score),[24],-0.142
same,glycan array binding signal (z-score),[25],-0.508
same,glycan array binding signal (z-score),[26],-0.699
same,glycan array binding signal (z-score),[27],0.278
same,glycan array binding signal (z-score),[28],1.7
same,glycan array binding signal (z-score),[29],0.269
same,glycan array binding signal (z-score),[30],-0.276
same,glycan array binding signal (z-score),[31],-0.029
same,glycan array binding signal (z-score),[32],0.668
same,glycan array binding signal (z-score),[33],0.686
same,glycan array binding signal (z-score),[34],0.187
same,glycan array binding signal (z-score),[35],0.29
same,glycan array binding signal (z-score),[36],5.37
same,glycan array binding signal (z-score),[37],0.299
same,glycan array binding signal (z-score),[38],-0.636
same,glycan array binding signal (z-score),[39],0.95

# Reprinted from the listing for reference:
binder,measurement,setting,value
Pbx2CASH domain (Cryptococcus neoformans) (protein) GIPGPNRLYRLSGPIIFTAADQEIATYGYPTGSERAVLRVEGRNTATAIQGDCRRCARVSVKNLVVDGNRKKLGRMRDFQLATGLVVLGGNEGQSIQNSWIKNPRGFTAIHIREGDKLQCSGARVEKNEIGPVGEEYDPEKDGDDPEMSPLGRPLADGVSIACRDSFIRDNTFRDNTDAAIVVYCSPGTLIHA,glycan array binding signal (z-score),[2],0.239
same,glycan array binding signal (z-score),[3],-0.599
